From patent publication US20070082934A1, “Substituted 4-aryloxy and 4-arylsulfanyl-phenyl-2-aminothiazoles as inhibitors of cell proliferation” (priority 2003, published 2007)
Some entries share one result that the patent states for a list of compounds.

system: human breast cancer cell lines; test: NCI anti-tumor screen, breast cancer cell line panel as a whole; assay type: cell-based; settings: comparison of GI50 values across cell lines
Procedure: Compounds were tested at the National Cancer Institute's Developmental Therapeutics Program, in duplicate, against 60 human tumor cell lines at a minimum of five concentrations at 10-fold dilutions: A 48 hour continuous drug exposure protocol was used, and a sulforhodamine B (SRB) protein assay was used to estimate cell viability or growth.
Upon completion of the synthesis, the thiazole compounds 17-24 and 27-30 were submitted to the NCI's antitumor screen (see Monks et al., J. Natl. Cancer Inst., 1991, 83:757b 766; Bray and Wickstrom, Biotechniques, 1996, 21:5:780-782) and the results against human breast cancer cell lines are shown in Table 2 as GI50 values.

| SMILES | selectivity among breast cancer cell lines |
| --- | --- |
| I.Nc1nc(-c2ccc(Oc3ccc(Cl)cc3)cc2)cs1 [Compound 17, 4-[4′-(4-Chlorophenoxy)-phenyl]-thiazol-2-yl ammonium iodide] | selective for the estrogen-positive cell line T-47D |
| Cc1ccc(Oc2ccc(-c3csc(N)n3)cc2)cc1.I [Compound 22, 4-[4′-(p-Toluoxy)phenyl]-thiazol-2-yl ammonium iodide] | selective for the estrogen-positive cell line T-47D |
| I.Nc1nc(-c2ccc(Oc3ccc(-c4ccccc4)cc3)cc2)cs1 [Compound 23, 4-[4′-(Biphenyl-4-yloxy)-phenyl]-thiazol-2-yl ammonium iodide] | selective for the estrogen-positive cell line T-47D |
| I.Nc1nc(-c2ccc(Oc3ccc(Oc4ccccc4)cc3)cc2)cs1 [Compound 24, 4-[4′-(4-Phenoxy-phenoxy)-phenyl]-thiazol-2-yl ammonium iodide] | selective for the estrogen-positive cell line T-47D |
